According to publication PMC10336005, “Architectural basis for cylindrical self-assembly governing Plk4-mediated centriole duplication in human cells” (Communications Biology, 2023):
These are yes or no findings as the source states them, for the method shown. A result given as binding can be weak or reduced; the word gives no strength. For some of these results: In cells and extracts the contact can be indirect.

Experiments:
[1] = molecular target: His-Cep63 (424–541) (human); assay: SAXS; solution scattering of purified complexes, concentration series extrapolated to infinite dilution; WT complex at 13 and 25 µM; ab initio DAMMIN envelopes; both purified
[2] = molecular target: His-Cep63 (440–541) (human); assay: as above
[3] = molecular target: His-Cep63 (440–541) (human); assay: AUC; sedimentation velocity of His-Cep63 (440–541)•Cep152 (1205–1272), 50,000 rpm, 20 °C, 100 mM NaCl, 20 mM Tris pH 7.5, 0.5 mM TCEP; both purified
[4] = molecular target: His-Cep63 (424–541) (human); assay: SEC; analytical SEC of the co-purified Cep63•Cep152 complexes; pH 7.5 (Fig. 2b); pH of the WT/∆23/2D comparison (Fig. 3a) not stated; both purified
[5] = molecular target: His-Cep63 (424–541) (human); assay: AUC; sedimentation velocity of His-Cep63 (424–541)•Cep152 (1205–1272), 50,000 rpm, 4 °C, 150 mM NaCl, 20 mM Tris pH 7.5, 10 mM 2-mercaptoethanol, 0.5 mM TCEP, 5% glycerol; various loading concentrations; both purified
Cep63 (220–541) (human) = assay: SAXS; solution scattering of purified complexes, concentration series extrapolated to infinite dilution; WT complex at 13 and 25 µM; ab initio DAMMIN envelopes; both purified
Cep63 (219–541) (human) = assay: as above
[6] = molecular target: His-Cep63 (424–541) (human); assay: iSCAMS (mass photometry); pH 5.5 sample diluted to 200 nM (methods: 100 nM) and left equilibrated at 4 °C; both purified
[7] = molecular target: His-Cep63 (424–541) (human); assay: AUC; sedimentation velocity of His-Cep63 (424–541)•Cep152 (1205–1295) 2D, 50,000 rpm, 4 °C, 150 mM NaCl, 20 mM Tris pH 7.5, 0.5 mM TCEP, 5% glycerol; various loading concentrations; both purified

Measured: binding

B1: Cep152 (1205–1272) (domain or fragment, UniProt O94986-3 1205-1272)
chain: GALEELRGQYIKAVKKIKCDMLRYIQESKERAAEMVKAEVLRERQETARKMRKYYLICLQQILQDDGK
binds: [1] | [2] | [3] | [4] | [5]

B2: Cep152 (1140–1295) (domain or fragment, UniProt O94986-3 1140-1295)
chain: GHHAQPLALQATEAEAEENNKVVEELIEENNDMKNKLEELQTLCKTPPRSLSAGAIENACLPCSGGALEELRGQYIKAVKKIKCDMLRYIQESKERAAEMVKAEVLRERQETARKMRKYYLICLQQILQDDGKEGAEKKIMNAASKLATMAKLLET
binds: Cep63 (220–541) (human)

B3: Cep152 (1205–1295) (domain or fragment, UniProt O94986-3 1205-1295)
chain: GALEELRGQYIKAVKKIKCDMLRYIQESKERAAEMVKAEVLRERQETARKMRKYYLICLQQILQDDGKEGAEKKIMNAASKLATMAKLLET
binds: Cep63 (219–541) (human) | [1] | [6] | [4]

B4: Cep152 (1205–1295) I1279D L1286D (domain or fragment, UniProt O94986-3 1205-1295)
chain: GALEELRGQYIKAVKKIKCDMLRYIQESKERAAEMVKAEVLRERQETARKMRKYYLICLQQILQDDGKEGAEKKDMNAASKDATMAKLLET
binds: [7] | [1] | [4]
